Results are given in words; binding and its absence hold for the method and conditions named. For some of these results: Binding seen in cells or lysates may run through a third protein. Some entries that bind do so weakly or less than the wild type. One block for each molecule: values may come before it.
Experiments:
[1] = target: T1, TG2 (endogenous, JHH-7 cells) (human (endogenous in JHH-7)) (UniProt P21980); test: proximity ligation; Duolink in situ PLA in fixed, permeabilised JHH-7 cells treated with 0.1% EtOH or 10 μM ACR (3, 5, 7 h); mouse anti-TG2 CUB7402 with rabbit anti-KPNA4, anti-SRP-1 or anti-importin-β
T1 sequence: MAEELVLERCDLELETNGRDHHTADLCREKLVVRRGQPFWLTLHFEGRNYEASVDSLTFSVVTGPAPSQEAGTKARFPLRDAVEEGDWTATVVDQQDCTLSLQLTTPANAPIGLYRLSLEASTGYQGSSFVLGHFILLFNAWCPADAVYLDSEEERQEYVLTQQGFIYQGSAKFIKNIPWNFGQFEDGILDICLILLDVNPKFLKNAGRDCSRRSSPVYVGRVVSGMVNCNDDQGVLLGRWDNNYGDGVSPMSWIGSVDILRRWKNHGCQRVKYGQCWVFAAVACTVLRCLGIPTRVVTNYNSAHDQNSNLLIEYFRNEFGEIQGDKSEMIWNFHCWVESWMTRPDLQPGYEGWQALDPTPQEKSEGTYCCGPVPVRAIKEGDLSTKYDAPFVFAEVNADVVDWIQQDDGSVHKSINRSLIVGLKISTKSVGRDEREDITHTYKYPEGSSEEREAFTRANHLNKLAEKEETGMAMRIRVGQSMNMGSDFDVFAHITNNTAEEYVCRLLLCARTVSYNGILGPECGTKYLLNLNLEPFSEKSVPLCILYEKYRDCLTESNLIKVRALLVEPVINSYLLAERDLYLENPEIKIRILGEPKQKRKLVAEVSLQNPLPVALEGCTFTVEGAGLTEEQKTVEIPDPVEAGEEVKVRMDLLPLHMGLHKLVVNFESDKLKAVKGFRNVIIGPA

Sequences of proteins named here, by UniProt entry; tags and fusion partners are left off.
UniProt O00629: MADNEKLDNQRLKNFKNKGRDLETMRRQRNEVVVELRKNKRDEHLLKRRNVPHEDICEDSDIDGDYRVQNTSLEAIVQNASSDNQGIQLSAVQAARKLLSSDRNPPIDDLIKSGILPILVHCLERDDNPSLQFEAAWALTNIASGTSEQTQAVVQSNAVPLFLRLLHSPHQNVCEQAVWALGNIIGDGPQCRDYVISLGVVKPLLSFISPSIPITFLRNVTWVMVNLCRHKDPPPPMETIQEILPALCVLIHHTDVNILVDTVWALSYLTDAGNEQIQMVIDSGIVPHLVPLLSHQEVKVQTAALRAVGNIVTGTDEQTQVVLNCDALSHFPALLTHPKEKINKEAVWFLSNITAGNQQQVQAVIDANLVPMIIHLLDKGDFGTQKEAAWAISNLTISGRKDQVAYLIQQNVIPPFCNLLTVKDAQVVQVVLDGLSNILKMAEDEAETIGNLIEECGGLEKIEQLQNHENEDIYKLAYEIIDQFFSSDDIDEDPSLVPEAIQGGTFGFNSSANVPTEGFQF
UniProt P52294: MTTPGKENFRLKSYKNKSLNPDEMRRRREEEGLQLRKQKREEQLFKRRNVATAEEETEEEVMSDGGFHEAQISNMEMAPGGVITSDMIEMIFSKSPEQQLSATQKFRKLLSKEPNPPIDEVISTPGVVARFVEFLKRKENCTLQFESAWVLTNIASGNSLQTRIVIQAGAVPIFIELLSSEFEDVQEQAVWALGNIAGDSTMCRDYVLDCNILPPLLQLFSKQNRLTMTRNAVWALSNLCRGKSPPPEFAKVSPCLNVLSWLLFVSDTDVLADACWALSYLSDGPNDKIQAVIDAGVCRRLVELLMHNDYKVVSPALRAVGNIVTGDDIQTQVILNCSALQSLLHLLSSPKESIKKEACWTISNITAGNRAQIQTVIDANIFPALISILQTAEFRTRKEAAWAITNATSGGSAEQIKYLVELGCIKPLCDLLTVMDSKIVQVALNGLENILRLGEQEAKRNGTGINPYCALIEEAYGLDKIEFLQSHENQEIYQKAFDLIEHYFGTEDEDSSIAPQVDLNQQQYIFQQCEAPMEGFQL
UniProt O14980: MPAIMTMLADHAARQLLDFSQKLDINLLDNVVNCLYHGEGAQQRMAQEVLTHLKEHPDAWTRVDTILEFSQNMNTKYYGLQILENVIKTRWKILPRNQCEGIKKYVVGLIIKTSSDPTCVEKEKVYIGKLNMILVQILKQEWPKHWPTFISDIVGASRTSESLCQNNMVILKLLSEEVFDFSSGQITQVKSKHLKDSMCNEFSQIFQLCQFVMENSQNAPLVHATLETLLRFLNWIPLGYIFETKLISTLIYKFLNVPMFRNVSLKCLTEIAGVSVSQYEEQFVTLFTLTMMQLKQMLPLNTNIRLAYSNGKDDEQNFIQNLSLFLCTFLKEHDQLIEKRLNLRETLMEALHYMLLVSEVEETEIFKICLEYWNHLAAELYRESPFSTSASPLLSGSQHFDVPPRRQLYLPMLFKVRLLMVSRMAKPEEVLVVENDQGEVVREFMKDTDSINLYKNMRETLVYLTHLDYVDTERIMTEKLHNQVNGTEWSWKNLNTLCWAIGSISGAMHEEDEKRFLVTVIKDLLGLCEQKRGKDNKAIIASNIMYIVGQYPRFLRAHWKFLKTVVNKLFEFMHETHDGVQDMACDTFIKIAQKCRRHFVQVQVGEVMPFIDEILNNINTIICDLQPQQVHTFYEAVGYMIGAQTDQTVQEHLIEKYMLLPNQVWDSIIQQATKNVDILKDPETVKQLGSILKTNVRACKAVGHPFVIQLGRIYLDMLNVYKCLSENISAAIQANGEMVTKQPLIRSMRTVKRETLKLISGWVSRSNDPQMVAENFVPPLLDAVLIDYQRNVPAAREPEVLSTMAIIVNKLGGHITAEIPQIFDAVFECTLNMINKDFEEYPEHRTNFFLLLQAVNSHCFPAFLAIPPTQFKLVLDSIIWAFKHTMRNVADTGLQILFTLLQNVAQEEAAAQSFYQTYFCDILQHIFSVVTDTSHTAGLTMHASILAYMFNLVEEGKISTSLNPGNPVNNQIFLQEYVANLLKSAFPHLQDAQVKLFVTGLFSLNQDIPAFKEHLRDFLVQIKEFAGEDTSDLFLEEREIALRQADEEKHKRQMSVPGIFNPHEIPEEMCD

[2] = target: T1, TG2 (endogenous, JHH-7 cells) (human (endogenous in JHH-7)); test: co-IP; JHH-7 cells treated 5 h with 0.1% EtOH or 10 μM ACR; lysis in Tris pH 7.4, 1% Triton X-100; 500 μg lysate protein with Dynabeads protein G carrying anti-TG2 CUB7402, 15 min, room temperature; importin-α3 and -β detected by western blot (1.9- and 1.3-fold more after ACR)
GST-tagged importin-α3 = GST-tagged importin-α3 (UniProt O00629); test: pull-down; GST-tagged importins or GST-importin-α/HA-importin-β complexes on glutathione sepharose 4B beads (six times molar excess); 100 ng (about 1.5 pmol) recombinant human TG2 added, 1 h, room temperature, Tris buffer pH 7.6, 150 mM NaCl; TG2 detected by western blot; some samples with Z-DON, 500 μM ATP, 0.1% EtOH or 20 μM ACR; both purified
[3] = target: complex of GST-tagged importin-α3 and HA-tagged importin-β (UniProt O00629); test: as above
GST-tagged importin-α5 = GST-tagged importin-α5 (UniProt P52294); test: as above
GST-tagged importin-β = GST-tagged importin-β (UniProt Q14974); test: as above
[4] = target: complex of GST-tagged importin-α5 and HA-tagged importin-β (UniProt P52294); test: as above
[5] = target: complex of GST-tagged importin-α3 and HA-tagged importin-β (UniProt O00629); test: pull-down; competition: GST-importin-α3/HA-importin-β complex on glutathione sepharose 4B beads, recombinant human TG2 (about 1.5 pmol), 1 h, room temperature, with peptide SV40 NLS, TG2 NES or TG2 NLS added; TG2 detected by western blot; both purified
GST-tagged exportin-1 = GST-tagged exportin-1 (UniProt O14980); test: pull-down; GST-tagged exportin-1 on glutathione sepharose 4B beads (six times molar excess), recombinant human TG2 (about 1.5 pmol), 1 h, room temperature, with or without 0.1% EtOH, 1 mM ACR, 10 μg/ml LMB; TG2 detected by western blot; both purified

Molecule: importin-α3 (endogenous, JHH-7 cells) (from UniProt O00629 1-521)
binding [1]: binds
binding [2]: binds

B1: Recombinant human TG2 (transglutaminase 2) (enzyme, UniProt P21980 1-687)
chain: MAEELVLERCDLELETNGRDHHTADLCREKLVVRRGQPFWLTLHFEGRNYEASVDSLTFSVVTGPAPSQEAGTKARFPLRDAVEEGDWTATVVDQQDCTLSLQLTTPANAPIGLYRLSLEASTGYQGSSFVLGHFILLFNAWCPADAVYLDSEEERQEYVLTQQGFIYQGSAKFIKNIPWNFGQFEDGILDICLILLDVNPKFLKNAGRDCSRRSSPVYVGRVVSGMVNCNDDQGVLLGRWDNNYGDGVSPMSWIGSVDILRRWKNHGCQRVKYGQCWVFAAVACTVLRCLGIPTRVVTNYNSAHDQNSNLLIEYFRNEFGEIQGDKSEMIWNFHCWVESWMTRPDLQPGYEGWQALDPTPQEKSEGTYCCGPVPVRAIKEGDLSTKYDAPFVFAEVNADVVDWIQQDDGSVHKSINRSLIVGLKISTKSVGRDEREDITHTYKYPEGSSEEREAFTRANHLNKLAEKEETGMAMRIRVGQSMNMGSDFDVFAHITNNTAEEYVCRLLLCARTVSYNGILGPECGTKYLLNLNLEPFSEKSVPLCILYEKYRDCLTESNLIKVRALLVEPVINSYLLAERDLYLENPEIKIRILGEPKQKRKLVAEVSLQNPLPVALEGCTFTVEGAGLTEEQKTVEIPDPVEAGEEVKVRMDLLPLHMGLHKLVVNFESDKLKAVKGFRNVIIGPA
binding (GST-tagged importin-α3): binds
binding [3]: binds
binding (GST-tagged importin-α5): binds
binding (GST-tagged importin-β): binds
binding [4]: binds
binding [5]: binds
binding (GST-tagged exportin-1): binds

Molecule: AEKEETGMAMRIRV [14-amino acid TG2 NLS peptide …]
binding [5]: binds

Results, then the molecule that gave them:

binding [1]: binds
binding [2]: binds
Molecule: importin-β (endogenous, JHH-7 cells) (from UniProt Q14974 1-876)

binding [1]: binds
Molecule: importin-α5 (endogenous, JHH-7 cells) (from UniProt P52294 1-538)
